Values of other authors as cited in patent publication US12637432B2, “Inhibitors of ACK1/TNK2 tyrosine kinase” (H. LEE MOFFITT CANCER CENTER AND RESEARCH INSTITUTE, INC., priority 2020, dated 2026).
For at least one compound, name, drawing or mass did not settle the structure.

Experiments:
[1] = tested on: LNCaP cells expressing constitutively activated ACK1; details: mouse xenograft model; cited from earlier work
[2] = tested on: non-small cell lung cancer (NSCLC) cell lines; details: panel of NSCLC cell lines; cited from earlier work
[3] = tested on: non-small cell lung cancer (NSCLC) cell lines; details: panel of NSCLC cell lines; cited from earlier work; remark: listed apart in the source

SMILES | growth of LNCaP cells expressing constitutively activated ACK1 [1] | cell migration and invasion [2] | viability [3]
Cc1nc(Nc2ncc(C(=O)Nc3c(C)cccc3Cl)s2)cc(N2CCN(CCO)CC2)n1 [Dasatinib] | significantly reduced |  | 
COc1cc(Nc2c(C#N)cnc3cc(OCCCN4CCN(C)CC4)c(OC)cc23)c(Cl)cc1Cl [bosutinib] |  | inhibit | but not viability
